Source: patent US12384969B2, “Enhancement of soil characteristics with lactobionate compounds” (Leprino Foods Company, priority 2017, dated 2025)

Columns and labels:
[1] = Soil nitrate (NO3-) concentration in K2SO4 extracts, laboratory soil incubation
[2] = Total soil organic carbon (SOC), laboratory soil incubation; details: for Increase in SOC: at 2 weeks, relative to control soils
[3] = Gravimetric soil water content (GWC) / soil water retention versus water potential, laboratory soil incubation; details: two-month experimental period

Compound	NO3− ([1]; Ak soil, HC, 1 mo)	NO3− ([1]; Ak soil, HC, 2 mo)	NO3− ([1]; Ak soil, HC, 2 wks)	NO3− ([1]; Ak soil, LC, 1 mo)	NO3− ([1]; Ak soil, LC, 2 mo)	NO3− ([1]; Ak soil, LC, 2 wks)	NO3− ([1]; Fr soil, HC, 1 mo)	NO3− ([1]; Fr soil, HC, 2 mo)	NO3− ([1]; Fr soil, HC, 2 wks)	NO3− ([1]; Fr soil, LC, 1 mo)	NO3− ([1]; Fr soil, LC, 2 mo)	NO3− ([1]; Fr soil, LC, 2 wks)	NO3− ([1]; at 2 months)	Increase in SOC [2] [mg g-soil]	Total SOC relative to control soils ([2]; at the end of the two-month period)	Increase of soil water content compared to unamended soils [3]
N.O=C(O)[C@H](O)[C@@H](O)[C@H](O[C@@H]1O[C@H](CO)[C@H](O)[C@H](O)[C@H]1O)[C@H](O)CO [NH4-LB, ammonium lactobionate]	0.96 ^E μg g-soil	199.58 ^A μg g-soil	0.91 ^C μg g-soil	0.24 ^E μg g-soil	154.19 ^AB μg g-soil	1.27 ^C μg g-soil	2.09 ^E μg g-soil	46.87 ^B μg g-soil	0.10 ^C μg g-soil	0.02 ^E μg g-soil	88.69 ^AB μg g-soil	0.50 ^C μg g-soil	46-200 ppm	–	–	–
O=C([O-])[C@H](O)[C@@H](O)[C@H](O[C@@H]1O[C@H](CO)[C@H](O)[C@H](O)[C@H]1O)[C@H](O)CO.[K+] [K-LB, potassium lactobionate]	0.13 ^E μg g-soil	0.21 ^C μg g-soil	0.17 ^C μg g-soil	0.22 ^E μg g-soil	0.09 ^C μg g-soil	0.17 ^C μg g-soil	0.24 ^E μg g-soil	0.09 ^C μg g-soil	0.04 ^C μg g-soil	0.23 ^E μg g-soil	0.08 ^C μg g-soil	0.19 ^C μg g-soil	–	~1.5	doubled	1-6 times
O=C([O-])[C@H](O)[C@@H](O)[C@H](O[C@@H]1O[C@H](CO)[C@H](O)[C@H](O)[C@H]1O)[C@H](O)CO.O=C([O-])[C@H](O)[C@@H](O)[C@H](O[C@@H]1O[C@H](CO)[C@H](O)[C@H](O)[C@H]1O)[C@H](O)CO.[Ca+2] [Ca-LB, calcium lactobionate]	0.12 ^E μg g-soil	0.15 ^C μg g-soil	0.22 ^C μg g-soil	0.05 ^E μg g-soil	2.24 ^C μg g-soil	0.30 ^C μg g-soil	0.05 ^E μg g-soil	0.75 ^C μg g-soil	0.29 ^C μg g-soil	0.02 ^E μg g-soil	0.74 ^C μg g-soil	0.17 ^C μg g-soil	–	~1.5	–	–
